Results: paper PMC10837098
These are yes or no findings as the source states them, for the method shown. Binding seen in cells or lysates may run through a third protein. Some results given as binding are weak or reduced against the parent protein; the word gives no strength. Tags and fused reporters may be left off the sequences shown.

T1: Arabidopsis thaliana Regulator of G Signaling 1 protein (AtRGS1), split-luciferase fusion (Arabidopsis thaliana) (UniProt Q8H1F2)
T1 sequence: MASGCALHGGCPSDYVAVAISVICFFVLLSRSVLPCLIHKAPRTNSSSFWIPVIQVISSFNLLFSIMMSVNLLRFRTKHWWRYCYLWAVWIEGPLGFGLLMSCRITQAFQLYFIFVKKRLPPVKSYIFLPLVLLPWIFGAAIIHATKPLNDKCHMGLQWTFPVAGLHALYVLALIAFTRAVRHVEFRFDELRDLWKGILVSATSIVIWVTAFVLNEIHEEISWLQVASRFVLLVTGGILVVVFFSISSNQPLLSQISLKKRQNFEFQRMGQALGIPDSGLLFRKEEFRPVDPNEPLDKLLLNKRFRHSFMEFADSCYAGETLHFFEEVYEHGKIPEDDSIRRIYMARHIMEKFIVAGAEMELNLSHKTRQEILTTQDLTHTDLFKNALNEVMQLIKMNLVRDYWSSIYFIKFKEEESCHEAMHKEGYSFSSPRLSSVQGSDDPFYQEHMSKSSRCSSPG

T2: AGB1/AGG1 (Gβγ) co-expressed: AGB1-nLUC with mCherry-AtAGG1 (Arabidopsis thaliana) (UniProt P49177+Q9FDX9)
T2 sequence 1: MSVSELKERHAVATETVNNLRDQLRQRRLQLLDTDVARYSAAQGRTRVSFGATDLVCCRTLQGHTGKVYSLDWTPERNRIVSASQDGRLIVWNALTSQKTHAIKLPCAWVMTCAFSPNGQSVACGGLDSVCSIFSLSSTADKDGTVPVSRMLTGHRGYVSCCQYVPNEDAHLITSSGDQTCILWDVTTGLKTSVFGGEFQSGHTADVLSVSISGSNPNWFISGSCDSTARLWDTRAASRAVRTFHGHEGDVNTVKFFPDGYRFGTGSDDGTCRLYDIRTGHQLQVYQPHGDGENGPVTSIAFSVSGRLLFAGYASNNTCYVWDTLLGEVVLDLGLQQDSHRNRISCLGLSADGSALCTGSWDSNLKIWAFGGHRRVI
T2 sequence 2: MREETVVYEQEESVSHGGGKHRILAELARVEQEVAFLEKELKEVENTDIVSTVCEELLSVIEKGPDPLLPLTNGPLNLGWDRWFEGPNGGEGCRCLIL

T3: AGB1, Gβ subunit, split-luciferase fusion, expressed without AGG1 (Arabidopsis thaliana), P49177
T3 chain: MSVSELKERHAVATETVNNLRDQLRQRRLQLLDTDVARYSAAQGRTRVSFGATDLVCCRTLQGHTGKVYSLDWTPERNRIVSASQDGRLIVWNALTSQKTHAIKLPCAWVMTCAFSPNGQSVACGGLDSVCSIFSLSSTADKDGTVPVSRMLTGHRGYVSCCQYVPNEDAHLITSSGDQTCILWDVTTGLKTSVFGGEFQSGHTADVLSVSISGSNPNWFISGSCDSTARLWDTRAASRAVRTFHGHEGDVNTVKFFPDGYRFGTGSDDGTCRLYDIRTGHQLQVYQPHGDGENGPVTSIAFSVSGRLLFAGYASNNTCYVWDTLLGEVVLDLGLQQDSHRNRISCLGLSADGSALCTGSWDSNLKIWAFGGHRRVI

B1: ATBα, substrate-recognition (regulatory B) subunit of protein phosphatase 2A, split-luciferase fusion (protein, UniProt Q38821 1-513)
chain: MNGGDEVVAASADPSLPLEWRFSQVFGERSAGEEVQEVDIISAIEFDNSGNHLATGDRGGRVVLFERTDTNNSSGTRRELEEADYPLRHPEFRYKTEFQSHDPEFDYLKSLEIEEKINKIRWCQTANGALFLLSTNDKTIKFWKVQDKKIKKICDMNSDPSRTVGNGTVASSSNSNITNSCLVNGGVSEVNNSLCNDFSLPAGGISSLRLPVVVTSHESSPVARCRRVYAHAHDYHINSISNNSDGETFISADDLRINLWNLEISNQSFNIVDVKPAKMEDLSEVITSAEFHPTHCNMLAYSSSKGSIRLIDLRQSALCDSHSKLFEEPEQAGPKSFFTEIIASVSDIKFAKEGRYLLSRDYMTLKLWDINMDAGPVATFQVHEYLKPKLCDLYENDSIFDKFECCISGNGLRAATGSYSNLFRVFGVAPGSTETATLEASRNPMRRHVPIPSRPSRALSSITRVVSRGSESPGVDGNTNALDYTTKLLHLAWHPNENSIACAAANSLYMYYA
B2: AtGPA1, canonical Gα subunit, split-luciferase fusion (protein, UniProt P18064 1-383)
chain: MGLLCSRSRHHTEDTDENTQAAEIERRIEQEAKAEKHIRKLLLLGAGESGKSTIFKQIKLLFQTGFDEGELKSYVPVIHANVYQTIKLLHDGTKEFAQNETDSAKYMLSSESIAIGEKLSEIGGRLDYPRLTKDIAEGIETLWKDPAIQETCARGNELQVPDCTKYLMENLKRLSDINYIPTKEDVLYARVRTTGVVEIQFSPVGENKKSGEVYRLFDVGGQRNERRKWIHLFEGVTAVIFCAAISEYDQTLFEDEQKNRMMETKELFDWVLKQPCFEKTSFMLFLNKFDIFEKKVLDVPLNVCEWFRDYQPVSSGKQEIEHAYEFVKKKFEELYYQNTAPDRVDRVFKIYRTTALDQKLVKKTFKLVDETLRRRNLLEAGLL
B3: ATBβ, B subunit isoform of protein phosphatase 2A, split-luciferase fusion (protein, UniProt Q39247 1-501)
chain: MNGGDDAATSGPPPSLEWRFSQVFGERTAGEEVQEVDIISAIEFDKSGDHLATGDRGGRVVLFERTDTKDHGGSRKDLEQTDYPVRHPEFRYKTEFQSHEPEFDYLKSLEIEEKINKIRWCQPANGALFLLSTNDKTIKYWKVQEKKIKKISEMNIDPSESSNIPPQLVTNGLPADKGHDYLSKDFSFPPGGIPSLRLPVVVTSQETNLVARCRRVYAHAHDYHINSISNSSDGETFISADDLRVNLWNLEISNQSFNIVDVKPTNMEDLTEVITSAEFHPIHCNMLAYSSSKGSIRLIDMRQSALCDSHTKLFEEPEAPGSRSFFTEIIASISDIKFSKDGRYILSRDYMTLKLWDINMDSGPVASYQVHEHLRPRLCDLYENDSIFDKFECCLSGDGLRVATGSYSNLFRVFGASQGSTEAATLEASKNPMRRQIQTPARPSRSIGSMTRVVRRGSESPGTEANGNAYDFTTKLLHMAWHPTENSIACAAANSLYMYYA
B4: AtGPA1, canonical Gα subunit, split-luciferase fusion, P18064 1-383 (protein)
chain: MGLLCSRSRHHTEDTDENTQAAEIERRIEQEAKAEKHIRKLLLLGAGESGKSTIFKQIKLLFQTGFDEGELKSYVPVIHANVYQTIKLLHDGTKEFAQNETDSAKYMLSSESIAIGEKLSEIGGRLDYPRLTKDIAEGIETLWKDPAIQETCARGNELQVPDCTKYLMENLKRLSDINYIPTKEDVLYARVRTTGVVEIQFSPVGENKKSGEVYRLFDVGGQRNERRKWIHLFEGVTAVIFCAAISEYDQTLFEDEQKNRMMETKELFDWVLKQPCFEKTSFMLFLNKFDIFEKKVLDVPLNVCEWFRDYQPVSSGKQEIEHAYEFVKKKFEELYYQNTAPDRVDRVFKIYRTTALDQKLVKKTFKLVDETLRRRNLLEAGLL

What was measured:
Experiment in all cases: split reporter; firefly split luciferase; nLUC and cLUC fusion partners co-expressed in Nicotiana benthamiana leaves by agroinfiltration; 6-mm leaf discs 48 h after infiltration, 0.4 mM D-luciferin; expression normalized by HiBiT
[1] = biological target: T1, Arabidopsis thaliana Regulator of G Signaling 1 protein (AtRGS1), split-luciferase fusion (Arabidopsis thaliana)
[2] = biological target: T2, AGB1/AGG1 (Gβγ) co-expressed: AGB1-nLUC with mCherry-AtAGG1 (Arabidopsis thaliana)
[3] = biological target: T3, AGB1, Gβ subunit, split-luciferase …; settings: remark: other sources report otherwise

Binder	binding [1]	further results
B1	binds	
B2		binding [2]: binds
B3	no binding	
B4		binding [3]: no binding
